Source: patent publication US12458641B2, “NK-3 receptor antagonists for therapeutic or cosmetic treatment of excess body fat” (Ogeda SA, priority 2015, dated 2025)

Test: 13-week oral dosing in cynomolgus monkeys: whole-body DEXA scan (lean mass, bone mineral density, bone mineral content, fat mass)
Format: in vivo, cynomolgus monkeys (Macaca fascicularis)
Settings: female monkeys, 10 and 50 mg/kg oral once daily, pre-dose vs week 13
Method: Sexually-mature (age range of ˜4 years at pre-dose), purpose-bred cynomolgus monkeys (Macaca fascicularis) of Asian origin were used. Sexual maturity was proven by recording of at least two menstrual bleedings (with 20-to-50 days between menstruations) prior to entry into the study.
NHPs were divided into three treatment groups: vehicle control (N=6) and compound k-5 Dose Groups of 10 mg/kg (N=4) and 50 mg/kg (N=6), respectively. All NHPs were dosed once daily (morning) by oral gavage over the 13 week treatment period of the study. The dose vehicle was 0.5% methylcellulose (Methocel® from Colorcon) in water.
All NHPs were subjected to a body weight measurement and DEXA scan (Dual-energy X-ray absorptiometry, Hologic Dexa QDR® 4000) in the pre-dose phase and in the final week (week-13) of the dosing phase. The measurements were made under ketamine anesthesia with dorbene and antisedan.
The whole body was scanned by DEXA for measurement of lean mass, bone mineral density, bone mineral content and fat mass.

Cc1nsc(-c2nnc3n2CCN(C(=O)c2ccc(F)cc2)[C@@H]3C)n1 [k-5, (R)-(4-fluorophenyl)(8-methyl-3-(3-methyl-1,2,4-thiadiazol-5-yl)-5,6-dihydro-[1,2,4]triazolo[4,3-a]pyrazin-7(8H)-yl)methanone]
no significant changes: change in bone mineral content (DEXA) | change in bone mineral density (DEXA) | change in lean mass (DEXA)
